These results are taken from article PMC11554683.

Chains of the proteins cited; added tags and fusions are not shown. Residues count along the entry.
UniProt P63218: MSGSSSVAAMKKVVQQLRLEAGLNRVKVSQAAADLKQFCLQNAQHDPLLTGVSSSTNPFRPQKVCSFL
UniProt P63096: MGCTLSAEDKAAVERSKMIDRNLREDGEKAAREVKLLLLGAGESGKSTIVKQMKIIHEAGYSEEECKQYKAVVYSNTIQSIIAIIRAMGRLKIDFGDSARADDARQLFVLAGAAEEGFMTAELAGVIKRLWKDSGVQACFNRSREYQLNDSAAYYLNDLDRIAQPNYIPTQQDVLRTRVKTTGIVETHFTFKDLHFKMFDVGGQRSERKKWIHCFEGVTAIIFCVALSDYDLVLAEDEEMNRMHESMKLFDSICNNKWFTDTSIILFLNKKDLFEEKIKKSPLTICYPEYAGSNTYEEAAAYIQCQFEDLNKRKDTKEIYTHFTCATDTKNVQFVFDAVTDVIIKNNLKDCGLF
UniProt P43250: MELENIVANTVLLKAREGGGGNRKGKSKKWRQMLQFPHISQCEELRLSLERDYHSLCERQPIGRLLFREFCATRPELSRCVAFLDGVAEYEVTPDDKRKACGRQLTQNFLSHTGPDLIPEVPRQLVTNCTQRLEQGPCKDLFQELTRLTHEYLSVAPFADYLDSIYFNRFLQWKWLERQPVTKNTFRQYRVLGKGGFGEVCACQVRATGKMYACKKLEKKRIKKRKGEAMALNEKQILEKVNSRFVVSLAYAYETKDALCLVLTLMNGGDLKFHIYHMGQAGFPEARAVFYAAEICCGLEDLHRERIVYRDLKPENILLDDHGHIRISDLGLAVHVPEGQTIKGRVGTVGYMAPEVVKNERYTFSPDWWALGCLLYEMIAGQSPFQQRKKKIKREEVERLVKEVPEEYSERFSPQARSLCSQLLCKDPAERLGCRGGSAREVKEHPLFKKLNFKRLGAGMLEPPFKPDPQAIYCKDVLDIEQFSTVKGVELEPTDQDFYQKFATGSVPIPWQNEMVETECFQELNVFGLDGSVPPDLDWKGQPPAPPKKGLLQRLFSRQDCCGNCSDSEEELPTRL
UniProt P32121: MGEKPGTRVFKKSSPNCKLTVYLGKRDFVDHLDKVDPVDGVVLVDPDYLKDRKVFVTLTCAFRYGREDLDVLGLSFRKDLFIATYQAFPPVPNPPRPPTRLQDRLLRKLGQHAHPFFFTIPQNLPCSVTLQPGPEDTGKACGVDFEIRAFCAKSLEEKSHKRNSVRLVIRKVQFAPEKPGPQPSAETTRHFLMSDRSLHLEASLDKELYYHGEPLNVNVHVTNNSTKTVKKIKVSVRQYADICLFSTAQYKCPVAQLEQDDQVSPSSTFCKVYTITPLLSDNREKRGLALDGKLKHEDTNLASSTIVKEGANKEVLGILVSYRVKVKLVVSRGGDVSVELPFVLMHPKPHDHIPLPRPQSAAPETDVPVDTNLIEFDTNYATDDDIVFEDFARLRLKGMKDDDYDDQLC
UniProt P05067, residues 18-770: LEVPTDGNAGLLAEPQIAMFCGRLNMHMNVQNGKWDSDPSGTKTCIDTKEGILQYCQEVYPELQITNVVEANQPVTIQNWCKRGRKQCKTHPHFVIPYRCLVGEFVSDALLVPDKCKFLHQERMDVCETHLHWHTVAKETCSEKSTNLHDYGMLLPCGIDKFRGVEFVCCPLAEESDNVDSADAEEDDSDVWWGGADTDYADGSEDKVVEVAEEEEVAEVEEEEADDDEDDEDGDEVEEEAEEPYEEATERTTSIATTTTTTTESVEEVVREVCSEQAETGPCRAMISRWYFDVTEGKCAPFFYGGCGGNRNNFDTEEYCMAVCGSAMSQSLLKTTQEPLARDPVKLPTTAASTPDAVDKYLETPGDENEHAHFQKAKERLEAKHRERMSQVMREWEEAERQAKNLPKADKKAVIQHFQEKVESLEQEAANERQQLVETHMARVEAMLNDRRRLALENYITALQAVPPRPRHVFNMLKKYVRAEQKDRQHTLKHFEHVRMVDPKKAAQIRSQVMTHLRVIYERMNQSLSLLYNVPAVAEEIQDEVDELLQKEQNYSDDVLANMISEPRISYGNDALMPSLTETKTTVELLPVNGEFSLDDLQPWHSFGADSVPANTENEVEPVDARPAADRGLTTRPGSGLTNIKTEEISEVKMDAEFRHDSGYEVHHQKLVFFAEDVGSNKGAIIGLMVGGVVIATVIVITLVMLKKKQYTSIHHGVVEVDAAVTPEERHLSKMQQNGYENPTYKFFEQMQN
UniProt Q92542, residues 34-709: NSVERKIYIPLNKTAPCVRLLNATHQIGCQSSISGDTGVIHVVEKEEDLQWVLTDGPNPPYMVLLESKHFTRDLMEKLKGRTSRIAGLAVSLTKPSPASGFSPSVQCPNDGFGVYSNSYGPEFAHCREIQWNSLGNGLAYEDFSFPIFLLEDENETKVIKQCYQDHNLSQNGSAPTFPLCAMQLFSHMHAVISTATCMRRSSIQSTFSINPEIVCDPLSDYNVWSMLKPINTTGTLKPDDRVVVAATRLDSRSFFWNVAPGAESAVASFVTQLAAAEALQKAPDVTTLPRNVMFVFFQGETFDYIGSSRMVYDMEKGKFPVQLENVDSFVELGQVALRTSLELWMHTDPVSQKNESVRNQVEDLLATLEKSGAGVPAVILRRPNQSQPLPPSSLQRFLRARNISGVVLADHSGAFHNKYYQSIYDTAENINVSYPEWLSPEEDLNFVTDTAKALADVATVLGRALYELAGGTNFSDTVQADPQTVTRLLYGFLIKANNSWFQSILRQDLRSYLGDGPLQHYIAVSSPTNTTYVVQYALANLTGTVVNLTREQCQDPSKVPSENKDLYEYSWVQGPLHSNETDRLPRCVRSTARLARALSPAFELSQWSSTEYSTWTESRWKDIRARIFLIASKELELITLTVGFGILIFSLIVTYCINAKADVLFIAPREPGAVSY
UniProt P25025: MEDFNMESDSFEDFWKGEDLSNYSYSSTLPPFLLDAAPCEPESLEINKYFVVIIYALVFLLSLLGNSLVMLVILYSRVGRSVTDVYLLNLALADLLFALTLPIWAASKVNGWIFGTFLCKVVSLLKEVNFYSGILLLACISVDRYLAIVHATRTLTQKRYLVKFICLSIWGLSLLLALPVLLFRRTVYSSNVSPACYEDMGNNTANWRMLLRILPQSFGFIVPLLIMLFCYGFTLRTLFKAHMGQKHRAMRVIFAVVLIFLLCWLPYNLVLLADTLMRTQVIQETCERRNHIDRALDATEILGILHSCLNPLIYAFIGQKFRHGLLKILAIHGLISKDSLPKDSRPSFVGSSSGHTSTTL
UniProt P49407: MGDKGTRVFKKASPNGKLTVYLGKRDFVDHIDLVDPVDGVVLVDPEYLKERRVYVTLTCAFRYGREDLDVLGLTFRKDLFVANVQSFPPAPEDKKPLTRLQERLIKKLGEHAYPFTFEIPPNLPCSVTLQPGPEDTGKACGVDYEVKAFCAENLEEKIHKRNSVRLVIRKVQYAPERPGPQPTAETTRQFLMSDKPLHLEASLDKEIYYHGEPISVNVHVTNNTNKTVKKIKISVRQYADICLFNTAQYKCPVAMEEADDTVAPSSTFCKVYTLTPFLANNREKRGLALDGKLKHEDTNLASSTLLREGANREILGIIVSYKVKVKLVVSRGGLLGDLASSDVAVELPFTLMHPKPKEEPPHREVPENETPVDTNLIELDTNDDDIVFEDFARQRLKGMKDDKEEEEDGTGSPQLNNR

No constants are given. Whether binding was seen depends on the method and setting. In cells and extracts the contact can be indirect. Here binding means that the protein was enriched with, or labelled near, the bait; the list need not be complete.

The test has as its target human recombinant protein GNG5-FLAG (human) (UniProt P63218). The test can be described thus: affinity purification with mass spectrometry; membrane proteins of 293T cells stably expressing GNG5-FLAG; anti-FLAG antibody, Protein A/G PLUS-Agarose, 4 °C; co-IP buffer 20 mM HEPES pH 7.5, 50 mM KCl, 2 mM EGTA, 0.25% CHAPSO; SDS-PAGE, in-gel digestion, LC-MS/MS.

Turning to PS2 (from UniProt P49810 1-448), the binding result is recorded as “binds”.
With GNAI1 (from UniProt P63096 1-354) the entry was “binds”; with “G-protein-coupled receptor kinase 6 (GRK6) (from UniProt P43250 1-576)”, “binds”.
The value for “β-arrestin ARRB2 (from UniProt P32121 1-409)” was “binds”; that for “amyloid precursor protein (APP) (from UniProt P05067 18-770)” was “binds”.
With NCSTN (from UniProt Q92542 34-709) the entry was “binds”; with “C-X-C chemokine receptor type 2 (CXCR2) (from UniProt P25025 1-360)”, “binds”.
Take “β-arrestin ARRB1 (from UniProt P49407 1-418)”: the binding entry was “binds”.
